This experiment concerns L1210 leukemia ip in BDF1 mice, survival T/C. Description: NCI In Vivo Anticancer Drug Screen. Data for tumor model L1210 Leukemia (intraperitoneal) in B6D2F1 (BDF1) mice. Particulars: T/C endpoint: mean survival time, higher T/C = longer survival.

The list shows only some results of the screen, not a fair sample: its compounds were picked by chemical class. Not every dose and run of a compound is shown. T/C gives the treated animals as a percentage of the vehicle group. Where survival is the endpoint, the PubChem record calls one and a half times the control and up active, and a quarter to a half above the control has no call in these data; cut-offs in other NCI protocols can differ. Some T/C values are marked as having no survivor count here; that says nothing about deaths at the dose. Schedule codes are those of the source, taken here to give the interval after Q, in days (D) or hours (H), and the number of doses after X. Some entries hold several experiments; their values stand side by side, smallest first. Some schedule codes hold Z or #, which are not explained here.

The results in this text go back to PubChem BioAssay AID248 (DTP/NCI, 2004).

In the case of `ClCCNCCCNCCCl`, the T/C is 105 % of control [survivor count not shown] (dose: 2.5 mg/kg/injection, schedule: Q#A X034 (ip), vehicle: saline); 113 % of control [survivor count not shown] (dose: 5.0 mg/kg/injection, schedule: Q01DX017 (ip), vehicle: saline); 104 % of control [survivor count not shown] (dose: 5.0 mg/kg/injection, schedule: Q02DX009 (ip), vehicle: saline); 119 % of control [survivor count not shown] (dose: 5.0 mg/kg/injection, schedule: Q#A X034 (ip), vehicle: saline); 126 % of control [survivor count not shown] (dose: 10.0 mg/kg/injection, schedule: Q01DX017 (ip), vehicle: saline); 101 [survivor count not shown] and 116 % of control [survivor count not shown] (dose: 10.0 mg/kg/injection, schedule: Q01DX Z (ip), vehicle: saline). Further, the T/C is 111 % of control [survivor count not shown] (dose: 10.0 mg/kg/injection, schedule: Q02DX009 (ip), vehicle: saline); 130 % of control [survivor count not shown] (dose: 10.0 mg/kg/injection, schedule: Q#A X034 (ip), vehicle: saline); 105 % of control [survivor count not shown] (dose: 12.5 mg/kg/injection, schedule: Q01DX Z (ip), vehicle: saline); 122 % of control [survivor count not shown] (dose: 12.5 mg/kg/injection, schedule: Q01DX Z (oral), vehicle: saline); 121 [survivor count not shown] and 130 % of control [survivor count not shown] (dose: 16.0 mg/kg/injection, schedule: Q01DX Z (ip), vehicle: saline); 152 % of control [survivor count not shown] (dose: 20.0 mg/kg/injection, schedule: Q01DX017 (ip), vehicle: saline). Also, the T/C (dose: 20.0 mg/kg/injection, schedule: Q02DX009 (ip), vehicle: saline) was 138 % of control [survivor count not shown]; the T/C (dose: 20.0 mg/kg/injection, schedule: Q#A X034 (ip), vehicle: saline) was 195 % of control [survivor count not shown]; the T/C (dose: 24.0 mg/kg/injection, schedule: Q01DX Z (ip), vehicle: saline) was 128 [survivor count not shown], 134 [survivor count not shown], 138 % of control [survivor count not shown]; the T/C (dose: 25.0 mg/kg/injection, schedule: Q01DX Z (ip), vehicle: saline) was 129 % of control [survivor count not shown]; the T/C (dose: 25.0 mg/kg/injection, schedule: Q01DX Z (oral), vehicle: saline) is 135 % of control [survivor count not shown]; the T/C (dose: 36.0 mg/kg/injection, schedule: Q01DX Z (ip), vehicle: saline) was 137 [survivor count not shown], 140 [survivor count not shown], 176 % of control [survivor count not shown]. Further, the T/C reads like this: (dose: 40.0 mg/kg/injection, schedule: Q01DX017 (ip), vehicle: saline) 175 % of control [survivor count not shown]; (dose: 40.0 mg/kg/injection, schedule: Q02DX009 (ip), vehicle: saline) 184 % of control [survivor count not shown]; (dose: 40.0 mg/kg/injection, schedule: Q#A X034 (ip), vehicle: saline) 93 % of control [survivor count not shown]; (dose: 50.0 mg/kg/injection, schedule: Q01DX001 (ip), vehicle: saline) 108 [survivor count not shown] and 110 % of control [survivor count not shown]; (dose: 50.0 mg/kg/injection, schedule: Q01DX Z (ip), vehicle: saline) 224 % of control [survivor count not shown]; (dose: 50.0 mg/kg/injection, schedule: Q01DX Z (oral), vehicle: saline) 186 % of control [survivor count not shown]. Moreover, the T/C runs as follows: (dose: 54.0 mg/kg/injection, schedule: Q01DX Z (ip), vehicle: saline) 181 % of control [survivor count not shown]; (dose: 80.0 mg/kg/injection, schedule: Q01DX017 (ip), vehicle: saline) 119 % of control [survivor count not shown]; (dose: 80.0 mg/kg/injection, schedule: Q02DX009 (ip), vehicle: saline) 187 % of control [survivor count not shown]; (dose: 81.0 mg/kg/injection, schedule: Q01DX Z (ip), vehicle: saline) 90 % of control [survivor count not shown]; (dose: 100.0 mg/kg/injection, schedule: Q01DX001 (ip), vehicle: saline) 125 [survivor count not shown] and 142 % of control [survivor count not shown]; (dose: 100.0 mg/kg/injection, schedule: Q01DX Z (ip), vehicle: saline) 112 % of control [survivor count not shown]. Further, the T/C reads like this: (dose: 100.0 mg/kg/injection, schedule: Q01DX Z (oral), vehicle: saline) 111 % of control [survivor count not shown]; (dose: 160.0 mg/kg/injection, schedule: Q02DX009 (ip), vehicle: saline) 91 % of control [survivor count not shown]; (dose: 200.0 mg/kg/injection, schedule: Q01DX001 (ip), vehicle: saline) 136 [survivor count not shown] and 147 % of control [survivor count not shown].

On to `O=C(OCC1CCCN2CCCCC12)C(O)(c1ccccc1)c1ccccc1` (stereo unspecified), for which the T/C reads like this: (dose: 6.25 mg/kg/injection, schedule: Q04DX003 (ip), vehicle: saline with Tween-80) 96 % of control [survivor count not shown]; (dose: 12.5 mg/kg/injection, schedule: Q04DX003 (ip), vehicle: saline with Tween-80) 102 % of control [survivor count not shown]; (dose: 25.0 mg/kg/injection, schedule: Q04DX003 (ip), vehicle: saline with Tween-80) 96 % of control [survivor count not shown].

As for `O=C(OCCN(C1CCCC1)C1CCCC1)C(O)(c1ccccc1)c1ccccc1`, the T/C reads like this: (dose: 100.0 mg/kg/injection, schedule: Q04DX003 (ip), vehicle: saline with Tween-80) 101 % of control [survivor count not shown]; (dose: 200.0 mg/kg/injection, schedule: Q04DX003 (ip), vehicle: saline with Tween-80) 101 % of control [survivor count not shown]; (dose: 400.0 mg/kg/injection, schedule: Q04DX003 (ip), vehicle: saline with Tween-80) 98 % of control [survivor count not shown].

Turning to `CN(C)C1CCCCC(OC(=O)C(O)(c2ccccc2)c2ccccc2)C1` (stereo unspecified), the T/C is, setting by setting: (dose: 9.5 mg/kg/injection, schedule: Q01DX001 (ip), vehicle: other) 100 % of control [survivor count not shown]; (dose: 19.0 mg/kg/injection, schedule: Q01DX001 (ip), vehicle: other) 105 % of control [survivor count not shown]; (dose: 38.0 mg/kg/injection, schedule: Q01DX001 (ip), vehicle: other) 98 % of control [survivor count not shown]; (dose: 75.0 mg/kg/injection, schedule: Q01DX001 (ip), vehicle: other) 89 % of control [survivor count not shown].

Consider `CN(C)CC1(COC(=O)C(O)(c2ccccc2)c2ccccc2)CCCCC1`, for which the T/C runs as follows: (dose: 12.0 mg/kg/injection, schedule: Q04DX003 (ip), vehicle: Klucel (hydroxypropylcellulose) (HPC)) 106 % of control [survivor count not shown]; (dose: 25.0 mg/kg/injection, schedule: Q04DX003 (ip), vehicle: Klucel (hydroxypropylcellulose) (HPC)) 93 % of control [survivor count not shown]; (dose: 50.0 mg/kg/injection, schedule: Q04DX003 (ip), vehicle: Klucel (hydroxypropylcellulose) (HPC)) 107 % of control [survivor count not shown].

Take `Cc1cc(C)c(O)c(CN(CC(C)Cl)CC(C)Cl)c1` (stereo unspecified): the T/C by setting is: (dose: 100.0 mg/kg/injection, schedule: Q01DX001 (ip), vehicle: carboxymethylcellulose (CMC)) 106 % of control [survivor count not shown]; (dose: 177.0 mg/kg/injection, schedule: Q01DX001 (ip), vehicle: carboxymethylcellulose (CMC)) 112 [survivor count not shown] and 116 % of control [survivor count not shown]; (dose: 200.0 mg/kg/injection, schedule: Q01DX001 (ip), vehicle: carboxymethylcellulose (CMC)) 109 % of control [survivor count not shown]; (dose: 266.0 mg/kg/injection, schedule: Q01DX001 (ip), vehicle: carboxymethylcellulose (CMC)) 112 [survivor count not shown] and 118 % of control [survivor count not shown]; (dose: 400.0 mg/kg/injection, schedule: Q01DX001 (ip), vehicle: carboxymethylcellulose (CMC)) 107 [survivor count not shown], 118 [survivor count not shown], 135 % of control [survivor count not shown].
